Results are given in words; binding and its absence hold for the method and conditions named. Some binding calls cover weakened binding; strength is not graded here.

B1: VHH α7C3 (VHH)
VHH: DVQLVESGGGLVQTGGSLRVSCAPSGRTVGTYTMGWFRQAPGENRDFVASISGAVGTTYYADSVQGRFTISRDNAKNTVYLQMNSLKPEDTAVYYCAAGSFPLTRTNYVQFWGQGTQVTVSS
B2: VHH α7F1 (VHH)
VHH: EVQLVESGGGLVQAGGSLRLSCAAPGITLSRYGMYGMGWFRQAPGKEREFVAAITWSGGQTYYQDSVKGRFTISRDNAKKLTFLQMNSLKPEDTAVYYCAADGDRFYPEPVVDDNAYKFWGQGTQVTVSS
B3: VHH α7F5 (VHH)
VHH: DVQLVESGGGLVQAGGSLRLSCAASGRTFSSYSMGWFRQAPGKEREFVAAINWSGGTTYYADSVKGRFTISRDNAKNTVYLQMNSLKPEDTAVYYCAAGGTTAQGMSVMTPRLGSWGQGTQVTVSS
B4: VHH α7E6 (VHH)
VHH: QLQLVESGGGLVQPGGSLRLSCAASGFTLDYYTIGWFRQAPGKEREGVSCIRGSGGSTNYADSVKGRFTISRDNAKNTVYLQMNSLKPEDTAVYYCAADFLSTCSLAGYRYEEVWGQGTLVTVSS
B5: VHH α7B7 (VHH)
VHH: EVQLQASGGGLVQAGGSLRLSCAASGGTFSSYAIGWFRQTPGKEREFVAAISWSGVSTDYAGSVKGRFTISRDNAKNTVYLQMNSLKPEDTAVYYCAAARFGTSSPDDEYHYWGHGTQVTVSS

For this test, the target named is hα7/m5-HT3A chimera (human; mouse) (UniProt P23979). Nature of the test: phage cell-ELISA on Vero cells with hα7/m5-HT3A; clones with absorbance ratio (positive/control) above 3 were kept. (In general: ELISA stands for enzyme-linked immunosorbent assay.)
As for B1, the binding result was “binds”.

Consider B2, for which the binding result is listed as “binds”. With B3 the entry was “binds”; with B4, “binds”; with B5, “binds”.

Source of the values: patent US20260176364A1.
